Laboratory results as given in PMC7859239.
No constants are given. Whether binding was seen depends on the method and setting. In cells and extracts the contact can be indirect. These calls come from enrichment with a bait or labelling near it, and not all partners need be listed. Tags and fused reporters may be left off the sequences shown.

The chains behind the UniProt entries cited, without tags or fusion partners.
UniProt P36595: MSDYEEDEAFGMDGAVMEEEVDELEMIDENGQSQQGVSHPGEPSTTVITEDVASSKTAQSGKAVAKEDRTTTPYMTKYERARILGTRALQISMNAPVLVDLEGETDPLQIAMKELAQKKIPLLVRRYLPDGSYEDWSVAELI

Target: T1, S. pombe Pol I subunit AC40 with C-terminal flag-his tag (Schizosaccharomyces pombe (endogenous in S. pombe)) (UniProt O94616)
T1 sequence: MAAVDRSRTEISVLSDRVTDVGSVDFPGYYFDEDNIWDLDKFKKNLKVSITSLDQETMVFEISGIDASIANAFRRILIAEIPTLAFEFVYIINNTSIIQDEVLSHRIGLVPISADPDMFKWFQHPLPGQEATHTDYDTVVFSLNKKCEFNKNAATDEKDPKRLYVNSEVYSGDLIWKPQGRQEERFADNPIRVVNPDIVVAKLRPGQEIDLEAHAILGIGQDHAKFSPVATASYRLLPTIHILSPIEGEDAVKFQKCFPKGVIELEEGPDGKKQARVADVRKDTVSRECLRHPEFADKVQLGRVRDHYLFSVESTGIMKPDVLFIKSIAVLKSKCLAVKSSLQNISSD
Assay: affinity purification with mass spectrometry; endogenous Pol I purified from S. pombe extract by the 10xHis tag on AC40 (Ni-NTA), then MonoQ and MonoS; subunits seen as bands on Coomassie-stained SDS-PAGE; A49/A34.5 also by mass spectrometry

binding: binds
Substance: S. pombe general RNA polymerase subunit Rpb6 (from UniProt P36595 1-142)
